In the supplement of paper PMC12067093, “Discovery and optimisation of a covalent ligand for TRIM25 and its application to targeted protein ubiquitination” (Chemical Science, 2025):
The other results are listed elsewhere or left out.

The chains behind the UniProt entries cited, without tags or fusion partners. Where a name states a change or a piece, a line headed by the entry shows the natural chain unless it says otherwise.
UniProt Q86XL3: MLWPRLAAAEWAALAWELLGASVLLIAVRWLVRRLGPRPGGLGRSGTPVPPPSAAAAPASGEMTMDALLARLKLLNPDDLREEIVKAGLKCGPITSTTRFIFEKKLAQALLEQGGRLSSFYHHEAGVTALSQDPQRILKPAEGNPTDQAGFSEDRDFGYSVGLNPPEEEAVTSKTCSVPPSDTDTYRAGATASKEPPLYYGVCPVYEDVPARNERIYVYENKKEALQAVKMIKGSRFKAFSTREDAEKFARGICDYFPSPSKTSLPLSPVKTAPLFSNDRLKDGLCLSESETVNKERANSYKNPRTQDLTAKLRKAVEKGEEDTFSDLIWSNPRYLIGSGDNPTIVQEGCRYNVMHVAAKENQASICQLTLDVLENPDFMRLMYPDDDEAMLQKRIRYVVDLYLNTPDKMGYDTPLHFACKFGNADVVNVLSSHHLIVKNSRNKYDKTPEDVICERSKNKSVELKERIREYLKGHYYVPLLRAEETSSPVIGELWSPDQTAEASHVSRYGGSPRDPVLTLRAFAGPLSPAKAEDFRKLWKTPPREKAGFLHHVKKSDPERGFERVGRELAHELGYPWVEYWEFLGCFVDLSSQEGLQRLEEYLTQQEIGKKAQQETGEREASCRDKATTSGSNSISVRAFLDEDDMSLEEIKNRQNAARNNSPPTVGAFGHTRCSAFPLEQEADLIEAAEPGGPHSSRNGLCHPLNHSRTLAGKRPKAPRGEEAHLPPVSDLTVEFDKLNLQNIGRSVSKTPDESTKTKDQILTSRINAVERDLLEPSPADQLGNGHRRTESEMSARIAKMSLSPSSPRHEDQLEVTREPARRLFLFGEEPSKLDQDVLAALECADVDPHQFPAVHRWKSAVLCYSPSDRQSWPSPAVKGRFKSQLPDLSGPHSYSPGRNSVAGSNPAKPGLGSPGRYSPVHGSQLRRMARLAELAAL
UniProt Q9ULJ7: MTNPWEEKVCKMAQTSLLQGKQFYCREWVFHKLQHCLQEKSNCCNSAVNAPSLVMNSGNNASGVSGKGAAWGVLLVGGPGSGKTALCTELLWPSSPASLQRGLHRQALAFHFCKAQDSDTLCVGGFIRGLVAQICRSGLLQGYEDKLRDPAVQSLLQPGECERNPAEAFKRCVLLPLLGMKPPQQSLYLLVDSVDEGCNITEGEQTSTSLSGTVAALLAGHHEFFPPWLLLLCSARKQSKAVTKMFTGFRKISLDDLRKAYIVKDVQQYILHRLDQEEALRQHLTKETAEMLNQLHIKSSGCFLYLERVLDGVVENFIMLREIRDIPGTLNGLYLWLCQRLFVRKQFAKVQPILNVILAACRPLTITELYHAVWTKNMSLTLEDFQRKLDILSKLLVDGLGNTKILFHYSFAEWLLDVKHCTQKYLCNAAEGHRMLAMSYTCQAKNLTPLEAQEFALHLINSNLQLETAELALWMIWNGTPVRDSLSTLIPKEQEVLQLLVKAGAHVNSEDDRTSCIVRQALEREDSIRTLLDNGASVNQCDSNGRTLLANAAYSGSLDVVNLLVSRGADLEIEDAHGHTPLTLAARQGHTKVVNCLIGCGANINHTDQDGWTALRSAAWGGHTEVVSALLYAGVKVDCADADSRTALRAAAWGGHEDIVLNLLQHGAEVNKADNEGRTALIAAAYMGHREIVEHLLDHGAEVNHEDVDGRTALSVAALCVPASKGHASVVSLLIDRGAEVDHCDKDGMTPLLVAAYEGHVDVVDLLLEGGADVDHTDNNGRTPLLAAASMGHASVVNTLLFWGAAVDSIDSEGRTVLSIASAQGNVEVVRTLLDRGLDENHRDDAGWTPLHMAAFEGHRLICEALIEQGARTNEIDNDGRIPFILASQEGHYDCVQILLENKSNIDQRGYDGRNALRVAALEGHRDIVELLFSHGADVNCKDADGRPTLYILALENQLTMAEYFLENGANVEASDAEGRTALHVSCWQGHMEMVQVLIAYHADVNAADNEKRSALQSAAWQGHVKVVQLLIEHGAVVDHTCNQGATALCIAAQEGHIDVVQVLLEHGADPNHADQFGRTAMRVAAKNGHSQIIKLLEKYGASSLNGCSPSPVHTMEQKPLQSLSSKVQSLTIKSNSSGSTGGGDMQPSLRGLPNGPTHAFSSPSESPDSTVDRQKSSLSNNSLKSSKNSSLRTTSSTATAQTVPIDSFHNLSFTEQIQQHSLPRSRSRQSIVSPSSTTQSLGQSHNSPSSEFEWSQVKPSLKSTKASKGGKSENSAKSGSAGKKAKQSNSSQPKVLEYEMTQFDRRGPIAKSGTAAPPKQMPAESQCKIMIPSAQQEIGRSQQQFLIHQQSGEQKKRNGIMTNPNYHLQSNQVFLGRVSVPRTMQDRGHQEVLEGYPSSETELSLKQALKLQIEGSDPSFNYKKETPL
UniProt Q9HDC9: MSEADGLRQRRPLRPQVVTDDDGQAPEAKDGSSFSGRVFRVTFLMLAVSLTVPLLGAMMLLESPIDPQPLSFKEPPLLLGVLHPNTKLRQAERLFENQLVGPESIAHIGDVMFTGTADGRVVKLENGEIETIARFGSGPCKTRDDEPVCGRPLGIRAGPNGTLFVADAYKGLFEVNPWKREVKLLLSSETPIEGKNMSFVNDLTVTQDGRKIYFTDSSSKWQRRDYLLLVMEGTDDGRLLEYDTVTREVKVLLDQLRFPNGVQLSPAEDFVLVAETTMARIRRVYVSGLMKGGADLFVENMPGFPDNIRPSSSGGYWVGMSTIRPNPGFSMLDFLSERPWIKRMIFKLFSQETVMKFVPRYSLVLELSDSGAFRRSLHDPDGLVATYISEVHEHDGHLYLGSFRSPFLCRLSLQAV
UniProt Q8IV38: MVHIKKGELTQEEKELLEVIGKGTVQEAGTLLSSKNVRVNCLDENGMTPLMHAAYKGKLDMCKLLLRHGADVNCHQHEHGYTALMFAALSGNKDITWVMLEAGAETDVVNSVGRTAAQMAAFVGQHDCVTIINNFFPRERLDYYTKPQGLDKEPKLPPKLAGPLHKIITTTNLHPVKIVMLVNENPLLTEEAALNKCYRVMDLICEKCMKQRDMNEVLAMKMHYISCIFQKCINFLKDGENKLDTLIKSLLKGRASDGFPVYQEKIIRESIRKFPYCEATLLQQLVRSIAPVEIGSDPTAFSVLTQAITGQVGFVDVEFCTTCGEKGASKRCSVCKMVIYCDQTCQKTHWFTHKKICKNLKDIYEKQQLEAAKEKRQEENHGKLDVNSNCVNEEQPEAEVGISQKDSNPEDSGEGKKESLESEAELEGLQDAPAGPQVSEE
UniProt Q7Z5R6: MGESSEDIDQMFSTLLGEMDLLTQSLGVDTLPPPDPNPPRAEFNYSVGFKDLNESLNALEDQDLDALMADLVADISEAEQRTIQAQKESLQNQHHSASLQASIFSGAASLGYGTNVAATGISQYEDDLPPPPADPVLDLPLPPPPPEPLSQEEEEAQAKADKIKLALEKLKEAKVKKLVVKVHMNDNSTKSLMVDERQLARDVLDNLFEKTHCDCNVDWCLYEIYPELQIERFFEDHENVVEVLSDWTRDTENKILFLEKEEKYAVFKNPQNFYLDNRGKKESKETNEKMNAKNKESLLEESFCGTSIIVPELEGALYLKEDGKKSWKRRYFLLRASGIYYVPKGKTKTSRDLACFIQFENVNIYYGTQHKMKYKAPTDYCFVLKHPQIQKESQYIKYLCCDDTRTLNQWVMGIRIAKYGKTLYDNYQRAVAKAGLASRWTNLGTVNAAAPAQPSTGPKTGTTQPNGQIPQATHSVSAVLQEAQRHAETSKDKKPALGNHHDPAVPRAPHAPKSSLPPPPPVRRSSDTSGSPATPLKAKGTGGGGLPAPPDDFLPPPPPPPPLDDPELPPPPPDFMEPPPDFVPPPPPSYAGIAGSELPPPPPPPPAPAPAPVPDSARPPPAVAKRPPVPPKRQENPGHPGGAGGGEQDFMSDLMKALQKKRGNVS
UniProt Q10567: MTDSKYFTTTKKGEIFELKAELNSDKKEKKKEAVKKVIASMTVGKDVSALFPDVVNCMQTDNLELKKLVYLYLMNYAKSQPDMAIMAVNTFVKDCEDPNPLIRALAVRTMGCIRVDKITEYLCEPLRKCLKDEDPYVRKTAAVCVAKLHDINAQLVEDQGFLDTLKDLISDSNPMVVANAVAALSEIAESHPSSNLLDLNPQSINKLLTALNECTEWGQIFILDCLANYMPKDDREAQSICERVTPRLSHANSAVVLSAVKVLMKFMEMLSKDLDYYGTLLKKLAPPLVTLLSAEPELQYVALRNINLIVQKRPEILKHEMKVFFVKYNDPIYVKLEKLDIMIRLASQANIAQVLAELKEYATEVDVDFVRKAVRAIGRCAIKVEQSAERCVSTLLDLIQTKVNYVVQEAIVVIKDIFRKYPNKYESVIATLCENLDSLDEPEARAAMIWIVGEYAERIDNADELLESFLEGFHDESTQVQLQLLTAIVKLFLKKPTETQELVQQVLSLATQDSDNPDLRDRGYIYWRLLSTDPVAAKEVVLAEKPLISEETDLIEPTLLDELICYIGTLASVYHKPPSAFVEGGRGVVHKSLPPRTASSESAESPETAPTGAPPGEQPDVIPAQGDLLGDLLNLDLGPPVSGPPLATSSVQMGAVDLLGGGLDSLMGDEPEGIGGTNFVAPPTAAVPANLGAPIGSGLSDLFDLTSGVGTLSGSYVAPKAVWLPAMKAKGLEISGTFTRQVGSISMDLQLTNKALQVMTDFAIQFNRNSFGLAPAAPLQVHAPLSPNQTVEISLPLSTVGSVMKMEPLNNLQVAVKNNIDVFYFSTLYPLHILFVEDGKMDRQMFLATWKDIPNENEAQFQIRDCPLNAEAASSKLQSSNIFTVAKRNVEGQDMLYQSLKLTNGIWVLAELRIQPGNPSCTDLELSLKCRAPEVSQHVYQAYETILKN
UniProt P28039: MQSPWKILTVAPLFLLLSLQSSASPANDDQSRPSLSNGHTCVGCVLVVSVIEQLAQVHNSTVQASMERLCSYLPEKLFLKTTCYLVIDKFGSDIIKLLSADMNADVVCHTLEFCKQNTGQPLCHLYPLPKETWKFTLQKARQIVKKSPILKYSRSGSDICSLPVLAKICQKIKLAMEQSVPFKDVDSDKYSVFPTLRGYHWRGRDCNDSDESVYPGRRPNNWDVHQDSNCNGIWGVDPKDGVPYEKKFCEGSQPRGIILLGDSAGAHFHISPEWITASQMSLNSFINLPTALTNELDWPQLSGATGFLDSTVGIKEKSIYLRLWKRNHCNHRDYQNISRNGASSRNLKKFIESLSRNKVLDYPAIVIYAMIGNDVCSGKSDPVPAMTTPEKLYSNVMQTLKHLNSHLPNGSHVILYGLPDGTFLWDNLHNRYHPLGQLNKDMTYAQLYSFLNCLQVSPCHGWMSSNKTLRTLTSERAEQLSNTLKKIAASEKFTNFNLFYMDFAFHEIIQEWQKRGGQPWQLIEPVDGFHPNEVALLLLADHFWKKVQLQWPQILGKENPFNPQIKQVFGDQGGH
UniProt O15084: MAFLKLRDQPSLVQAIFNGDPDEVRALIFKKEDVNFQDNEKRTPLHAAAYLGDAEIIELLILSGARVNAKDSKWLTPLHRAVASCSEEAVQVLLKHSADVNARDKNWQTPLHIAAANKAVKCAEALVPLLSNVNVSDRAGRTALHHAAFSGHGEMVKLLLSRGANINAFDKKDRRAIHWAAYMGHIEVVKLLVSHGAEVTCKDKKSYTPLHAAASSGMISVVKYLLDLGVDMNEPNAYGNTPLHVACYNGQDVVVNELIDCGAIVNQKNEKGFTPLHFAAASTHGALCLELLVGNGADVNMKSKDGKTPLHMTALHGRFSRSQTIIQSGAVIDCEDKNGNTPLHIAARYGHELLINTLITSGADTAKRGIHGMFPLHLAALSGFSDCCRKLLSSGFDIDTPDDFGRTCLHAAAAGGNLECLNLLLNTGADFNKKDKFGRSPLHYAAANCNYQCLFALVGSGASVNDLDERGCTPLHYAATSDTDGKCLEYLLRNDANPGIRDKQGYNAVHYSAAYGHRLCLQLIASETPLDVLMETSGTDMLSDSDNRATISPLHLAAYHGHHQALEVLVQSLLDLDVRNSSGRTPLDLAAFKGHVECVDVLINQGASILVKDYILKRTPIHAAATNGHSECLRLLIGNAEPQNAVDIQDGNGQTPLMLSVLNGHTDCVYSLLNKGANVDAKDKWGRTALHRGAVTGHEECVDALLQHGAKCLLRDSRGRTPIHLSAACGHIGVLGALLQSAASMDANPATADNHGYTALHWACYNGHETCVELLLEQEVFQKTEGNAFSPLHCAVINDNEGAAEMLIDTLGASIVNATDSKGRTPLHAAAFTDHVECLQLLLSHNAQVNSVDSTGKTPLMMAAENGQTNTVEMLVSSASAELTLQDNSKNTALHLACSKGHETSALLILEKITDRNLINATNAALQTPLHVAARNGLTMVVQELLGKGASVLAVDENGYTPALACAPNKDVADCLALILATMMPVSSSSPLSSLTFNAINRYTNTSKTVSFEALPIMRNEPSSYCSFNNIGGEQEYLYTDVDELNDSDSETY

compound: Cc1cc(ccc1-c1ccccc1)C(=O)N1CCCN(CC1)C(=O)CCl [compound 10]; assay: probe-labelled cysteine peptide fold change vs DMSO (competition) (log2 fold change); higher = less target engagement (more negative = stronger competition); conditions: 10 µM; THP-1; incubation time: 4 h
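Note: competitive profiling in live THP-1 cells: cysteine peptides tagged with an iodoacetamide desthiobiotin (IA-DTB) probe, intensity after compound treatment relative to DMSO-treated cells.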

Target | probe-labelled cysteine peptide fold change
AP2A1_O95782_397_AADLLYAMCDR (UniProt O95782) | 0.0796
ANLN_Q9NQW6_210_LANLAATICSWEDDVNHSFAK (UniProt Q9NQW6) | 0.414
ANKHD1_Q8IWZ3_873_DTVSLHQQCSHR (UniProt Q8IWZ3) | 0.0706
ANKLE2_Q86XL3_674_CSAFPLEQEADLIEAAEPGGPHSSR (UniProt Q86XL3) | -0.124
ANXA6_P08133_59_QRQEVCQSYK (UniProt P08133) | 0.0674
ANXA5_P08758_316_ALLLLCGEDD (UniProt P08758) | -0.0286
ANXA1_P04083_324_MYGISLCQAILDETK (UniProt P04083) | -0.0121
APEH_P13798_152_HGPVYEDDCFGCLSWSHSETHLLYVAEK (UniProt P13798) | 0.174
ANKRD44_Q8N8A2_615_GHTECVEALINQGASIFVK (UniProt Q8N8A2) | -0.0324
ANKRD50_Q9ULJ7_744_GAEVDHCDK (UniProt Q9ULJ7) | 0.0279
APMAP_Q9HDC9_149_TRDDEPVCGRPLGIR (UniProt Q9HDC9) | -0.0814
ANP32A_P39687_123_SLDLFNCEVTNLNDYRENVFK (UniProt P39687) | 0.184
ANP32B_Q92688_123_SLDLFNCEVTNLNDYRESVFK (UniProt Q92688) | -0.0375
ANKMY2_Q8IV38_41_VNCLDENGMTPLMHAAYK (UniProt Q8IV38) | 0.163
ANKLE1_Q8NAG6_124_DQDGLRPLDLALQQGHLECAR (UniProt Q8NAG6) | -0.0534
ANKRD17_O75179_644_AGHVCTVQFLISK (UniProt O75179) | -0.21
APEH_P13798_361_QLGENFSGIYCSLLPLGCWSADSQR (UniProt P13798) | 0.149
AP1G1_O43747_106_QDVHLLMTNCIK (UniProt O43747) | 0.143
ANKRD17_O75179_442_TDEMHTALMEACMDGHVEVAR (UniProt O75179) | 0.144
APMAP_Q9HDC9_140_FGSGPCK (UniProt Q9HDC9) | -0.158

Target | probe-labelled cysteine peptide fold change
ANKRD17_O75179_1622_ISSCSDESSNSNSSR (UniProt O75179) | 0.381
ANXA7_P20073_285_VLIEILCTR (UniProt P20073) | 0.189
ANKRD54_Q6NXT1_185_DGLGNTPLHLAACTNHVPVITTLLR (UniProt Q6NXT1) | 0.177
ANKRD44_Q8N8A2_368_CGIHSMFPLHLAALNAHSDCCR (UniProt Q8N8A2) | 0.15
APBB1IP_Q7Z5R6_355_DLACFIQFENVNIYYGTQHK (UniProt Q7Z5R6) | 0.105
ANKS1A_Q92625_211_MLLNAHPNLLSCNTK (UniProt Q92625) | 0.111
ANKMY2_Q8IV38_227_MHYISCIFQK (UniProt Q8IV38) | -0.211
ANKRD17_O75179_1158_DTPLSLACSGGR (UniProt O75179) | 0.0355
AP2A2_O94973_353_YLALESMCTLASSEFSHEAVK (UniProt O94973) | 0.0402
APAF1_O14727_662_AHEDEVLCCAFSTDDR (UniProt O14727) | 0.218
AP1B1_Q10567_921_IQPGNPSCTDLELSLK (UniProt Q10567) | 0.155
ANKRD52_Q8NB46_733+749_GAVTGCEDCLAALLDHDAFVLCR (UniProt Q8NB46) | -0.196
AOAH_P28039_329_RNHCNHR (UniProt P28039) | -0.129
AP3D1_O14617_137_DLSSPSQYDTGVALTGLSCFVTPDLAR (UniProt O14617) | 0.049
ANO6_Q4KMQ2_426_CTHVVINEITQEEERIPFTAWGK (UniProt Q4KMQ2) | -0.386
ANKRD28_O15084_201_LLVSHGAEVTCK (UniProt O15084) | -0.0595
AP2A1_O95782_492_TVFEALQAPACHENMVK (UniProt O95782) | 0.0987
ANO6_Q4KMQ2_105_RQAYESNLICHGLQLEATR (UniProt Q4KMQ2) | -0.065
ANKRD17_O75179_210_RLTSSVSCALDEAAAALTR (UniProt O75179) | -0.0975
ANXA6_P08133_114_CLIEILASR (UniProt P08133) | 0.0273

same assay, conditions: 50 µM; THP-1; incubation time: 4 h

Target | probe-labelled cysteine peptide fold change
AP2A1_O95782_397_AADLLYAMCDR (UniProt O95782) | -0.00803
ANLN_Q9NQW6_210_LANLAATICSWEDDVNHSFAK (UniProt Q9NQW6) | 0.305
ANKHD1_Q8IWZ3_873_DTVSLHQQCSHR (UniProt Q8IWZ3) | -0.169
ANKLE2_Q86XL3_674_CSAFPLEQEADLIEAAEPGGPHSSR (UniProt Q86XL3) | -0.216
ANXA6_P08133_59_QRQEVCQSYK (UniProt P08133) | 0.156
ANXA5_P08758_316_ALLLLCGEDD (UniProt P08758) | 0.0276
ANXA1_P04083_324_MYGISLCQAILDETK (UniProt P04083) | 0.0864
APEH_P13798_152_HGPVYEDDCFGCLSWSHSETHLLYVAEK (UniProt P13798) | 0.179
ANKRD44_Q8N8A2_615_GHTECVEALINQGASIFVK (UniProt Q8N8A2) | -0.665
ANKRD50_Q9ULJ7_744_GAEVDHCDK (UniProt Q9ULJ7) | 0.216
APMAP_Q9HDC9_149_TRDDEPVCGRPLGIR (UniProt Q9HDC9) | 0.0194
ANP32A_P39687_123_SLDLFNCEVTNLNDYRENVFK (UniProt P39687) | -0.114
ANP32B_Q92688_123_SLDLFNCEVTNLNDYRESVFK (UniProt Q92688) | -0.493
ANKMY2_Q8IV38_41_VNCLDENGMTPLMHAAYK (UniProt Q8IV38) | -0.0437
ANKLE1_Q8NAG6_124_DQDGLRPLDLALQQGHLECAR (UniProt Q8NAG6) | 0.189
ANKRD17_O75179_644_AGHVCTVQFLISK (UniProt O75179) | -0.425
APEH_P13798_361_QLGENFSGIYCSLLPLGCWSADSQR (UniProt P13798) | 0.291
AP1G1_O43747_106_QDVHLLMTNCIK (UniProt O43747) | 0.251
ANKRD17_O75179_442_TDEMHTALMEACMDGHVEVAR (UniProt O75179) | 0.279
APMAP_Q9HDC9_140_FGSGPCK (UniProt Q9HDC9) | 0.0996

Target | probe-labelled cysteine peptide fold change
ANKRD17_O75179_1622_ISSCSDESSNSNSSR (UniProt O75179) | 0.134
ANXA7_P20073_285_VLIEILCTR (UniProt P20073) | 0.1
ANKRD54_Q6NXT1_185_DGLGNTPLHLAACTNHVPVITTLLR (UniProt Q6NXT1) | 0.0261
ANKRD44_Q8N8A2_368_CGIHSMFPLHLAALNAHSDCCR (UniProt Q8N8A2) | 0.229
APBB1IP_Q7Z5R6_355_DLACFIQFENVNIYYGTQHK (UniProt Q7Z5R6) | 0.0924
ANKS1A_Q92625_211_MLLNAHPNLLSCNTK (UniProt Q92625) | -0.228
ANKMY2_Q8IV38_227_MHYISCIFQK (UniProt Q8IV38) | 0.55
ANKRD17_O75179_1158_DTPLSLACSGGR (UniProt O75179) | 0.317
AP2A2_O94973_353_YLALESMCTLASSEFSHEAVK (UniProt O94973) | 0.0718
APAF1_O14727_662_AHEDEVLCCAFSTDDR (UniProt O14727) | 0.309
AP1B1_Q10567_921_IQPGNPSCTDLELSLK (UniProt Q10567) | -0.0625
ANKRD52_Q8NB46_733+749_GAVTGCEDCLAALLDHDAFVLCR (UniProt Q8NB46) | -0.826
AOAH_P28039_329_RNHCNHR (UniProt P28039) | 0.26
AP3D1_O14617_137_DLSSPSQYDTGVALTGLSCFVTPDLAR (UniProt O14617) | -0.394
ANO6_Q4KMQ2_426_CTHVVINEITQEEERIPFTAWGK (UniProt Q4KMQ2) | -0.657
ANKRD28_O15084_201_LLVSHGAEVTCK (UniProt O15084) | 0.174
AP2A1_O95782_492_TVFEALQAPACHENMVK (UniProt O95782) | 0.0873
ANO6_Q4KMQ2_105_RQAYESNLICHGLQLEATR (UniProt Q4KMQ2) | -0.188
ANKRD17_O75179_210_RLTSSVSCALDEAAAALTR (UniProt O75179) | -0.305
ANXA6_P08133_114_CLIEILASR (UniProt P08133) | 0.0524
